# Laboratory results from PubChem BioAssay AID595 (National Center for Advancing Translational Sciences (NCATS), 2007).
# The campaign covered roughly 71,000 compounds. About 310 (0.44%) were called active. Inconclusive results, whose numbers are uncertain, are shown with a selection of clear calls. The call rests on the fitted dose curve; in most records, active means well fitted curve in either direction with a large enough effect; inconclusive means small, poorly fitted or top-dose-only effect, or another doubt; inactive means flat fitted curve, though single readings scatter. Potencies beside an inconclusive call are fits to weak or partial responses and may not hold up.
# Tested on: Hsp90 C-terminal peptide / TPR2A (Hop) interaction, human
# Assay: qHTS Assay for Disrupters of an Hsp90 Co-Chaperone Interaction
# Conditions: AlphaScreen TPR2A-His6 binding biotin-Hsp90 C-terminal peptide; activity change, negative = inhibition: at 57 µM (top of the series) unless noted
# On the % scale 0 is the no-effect control and ±100 the full control effect; potency means the concentration at half of the fitted maximal effect.
SMILES,Potency,"activity change, negative = inhibition"
Cc1ccc(Br)cc1S(=O)(=O)N1CCN(c2ccccc2)CC1,"inconclusive: 20 µM [activator, partial curve]",
C=CCSc1nnc(-c2ccc(Cl)cc2Cl)o1,"inconclusive: 3.98 µM [activator, single point]",
COC(=O)c1ccccc1NC(=O)c1ccccc1OC,"inconclusive: 25.1 µM [activator, single point]",
O=C(Nc1ccc2c(c1)OCO2)C(c1ccccc1)N1CCC2(CC1)OCCO2 (stereo not drawn),,inconclusive: 38.2%
COC(=O)c1[nH]c(C)c(/C(O)=C2\C(=O)C(=O)N(CCN(C)C)C2c2ccc(C)o2)c1C (stereo not drawn),,inconclusive: 42.6%
CCOC(=O)c1ccc(NC(=O)Nc2ccc3c4c(cccc24)C(=O)N3CC)cc1,,inconclusive: 45.1%
COc1ccc(CNc2ccnc(-c3ccccc3CN(C)C)n2)c(OC)c1,,inactive
O=C(CCCC(=O)N(CC(=O)NC1CCCC1)Cc1ccc2c(c1)OCO2)Nc1ccccn1,,inactive
O=c1c(-c2cccs2)nc2cnc(Oc3ccccc3)nc2n1-c1ccccc1,,inactive
CC(OCC(O)CN(C)CCOc1ccccc1)c1ccc(Cl)cc1 (stereo not drawn),,inconclusive: 43.6%
CC(C)N(CCc1ccncc1)C(=O)Nc1ccc(F)cc1,,inconclusive: 50.1%
O=C(/C=C\c1ccc(O)c(O)c1)OCCc1ccccc1,inconclusive: 12.6 µM [inhibitor],
CCN(CC)C(=O)c1sc2nc(-c3ccccn3)[nH]c(=O)c2c1C,active: 7.94 µM,
CN1CCCC[C@@H]1CCN1c2ccccc2Sc2ccc(S(C)=O)cc21 (stereo partly drawn),,inactive
COc1ccccc1NC(=O)c1ccccc1NS(C)(=O)=O,,inconclusive: 39.6%
COc1cc2nc3c(c([Si](C)(C)C(C)(C)C)c2cc1OC)Cn1c-3cccc1=O,,inactive
CCCOC(=O)c1ccc2c(c1)C(=O)N(c1ccccc1)C2=O,,inconclusive: 78.9%
COc1cccc(Nc2ncc(C(=O)O)c3ccccc23)c1,,inconclusive: 43.4%
c1ccc(-c2oc3ncnc(NCCN4CCOCC4)c3c2-c2ccccc2)cc1,,inactive
CCc1c2c(nc3c(C(C)C)cccc13)-c1cccc(=O)n1C2,"inconclusive: 25.1 µM [activator, single point]",
COCCOc1ccc(C(F)(F)F)cc1Nc1nc2ccccc2o1,,inconclusive: 166%

SMILES,Potency,"activity change, negative = inhibition"
CC(=O)c1cc(OC(=O)N2CCOCC2)ccc1OC(=O)N1CCOCC1,,inconclusive: 72.2%
CCOC(=O)c1cccc(NC(=O)CN2C(=O)C3C4C=CC(C4)C3C2=O)c1 (stereo not drawn),,inconclusive: 49.3%
O=C(NC1CCCC1)C(c1cccnc1)N(C(=O)c1csnn1)C1CC1 (stereo not drawn),,inconclusive: 41.6%
O=C(Nc1ccc2c(c1)OCCO2)NC1CCCCC1,,inactive: -4.87% [at 11 µM]
COCCNC(=O)CCCn1c(=O)c2ccccc2n(CC(=O)NCCC2=CCCCC2)c1=O,,inconclusive: 42.9%
O=c1cc(-c2ccccc2O)oc2c(O)c(O)ccc12,,inactive
COc1ccc(-c2nnn(CC(=O)N(CC(=O)NC3CCCC3)c3cccc(C)c3)n2)cc1OC,,inactive
CN1CCC(OC(=O)C23CCC(C)(C(=O)O2)C3(C)C)CC1 (stereo not drawn),,inconclusive: 43.1%
COc1nc(Nc2nc3ccccc3c(=O)[nH]2)nc2ccc(C)cc12,,inactive: -4.37% [at 11 µM]
CC(=O)C1=C(O)C(=O)N(CO)C1c1ccccc1F (stereo not drawn),,inconclusive: 45.6%
Cc1c(Cl)c(S(N)(=O)=O)cc(S(N)(=O)=O)c1NC(=O)c1ccc(Cl)cc1,,inactive: -0.601% [at 11 µM]
Cc1cccc(-n2c(N)c(C(=O)NCCN3CCOCC3)c3nc4ccccc4nc32)c1,"inconclusive: 25.1 µM [activator, single point]",
COCCNc1cc(C)nc2c(-c3ccccc3OC)c(C)nn12,,inconclusive: 45.6%
CCCn1c(-c2ccc(F)cc2)nc2c(NCCCN(CCO)CCO)nc(C)nc21,,inactive
Cc1cccc(NC(=O)CN2C(=O)COc3ccc(Cl)cc32)c1,,inconclusive: 53.8%
CCSC1=C(C#N)C(c2ccc(OC)c(OC)c2)CC(=O)N1 (stereo not drawn),,inconclusive: 68.9%
Cn1c(=O)c(-c2ccc(F)c(F)c2)nc2cncnc21,,inactive
C=CCOc1ccc(/C(O)=C2/C(=O)C(=O)N(CCCn3ccnc3)C2c2cccs2)cc1 (stereo not drawn),"inconclusive: 3.98 µM [inhibitor, single point]",
Cc1ccc(S(=O)(=O)N[C@H](CO)C(=O)O)cc1,,inactive: -3.02% [at 11 µM]
CC(C)CN1CC2(CCN(S(=O)(=O)c3ccccc3)CC2)C1,,inactive
O=C(c1csnn1)N1CCC2(CCCN(c3ncccn3)C2)CC1,,inactive

# Ordered by length of the SMILES (smallest number first): part of the list above.
SMILES,Potency,"activity change, negative = inhibition"
COc1cccc(Nc2ncc(C(=O)O)c3ccccc23)c1,,inconclusive: 43.4%
COc1nc(Nc2nc3ccccc3c(=O)[nH]2)nc2ccc(C)cc12,,inactive: -4.37% [at 11 µM]
CCOC(=O)c1cccc(NC(=O)CN2C(=O)C3C4C=CC(C4)C3C2=O)c1 (stereo not drawn),,inconclusive: 49.3%

# The list continues.

SMILES,Potency,"activity change, negative = inhibition"
CCN(CC)c1nc(C#N)cc(-c2ccc(OC)cc2)n1,active: 25.1 µM [activator],
O=C(NCc1ccco1)C1CN(S(=O)(=O)c2ccccc2)CCN1S(=O)(=O)c1ccccc1 (stereo not drawn),,inconclusive: 42.9%
Cc1ccc(S(=O)(=O)NC(CC(=O)O)c2ccccc2)cc1 (stereo not drawn),,inactive
CC(C)(C)NC(=O)NC(=O)COc1ccccc1C#N,,inconclusive: 42.3%
CC(=O)Nc1ccc(OCC(O)CN2CCN(c3ccc(C)c(Cl)c3)CC2)cc1 (stereo not drawn),,inactive
O=C(c1c(Cl)cccc1Cl)N1CCN(c2ccccn2)CC1,,inactive
C[C@@H](C(=O)Nc1ccc2ccccc2c1)[C@@H]1C[C@@]1(C)[C@@H](NC(=O)Oc1ccc(F)cc1)c1ccccc1,,inactive
CN1CCN(Cc2cc(COCc3ccccc3)c3cccnc3c2O)CC1,active: 1.58 µM,
C=CCN(C(=O)Nc1ccccc1)C1CC(=O)N(c2ccc(OC)cc2)C1=O (stereo not drawn),,inconclusive: 42%
Cc1ccc(S(=O)(=O)NCCSc2nnc(N)s2)cc1,,inconclusive: 37.6%
O=C(CSc1nnc(COc2ccccc2)o1)Nc1nccs1,"inconclusive: 25.1 µM [inhibitor, single point]",
N#CC(C#N)=c1ccc2c(c1)N1C3=C(CCCC3)CC3CCCCC31N=2 (stereo not drawn),"inconclusive: 5.01 µM [inhibitor, partial curve]",
NC(=O)C1(N2CCCCC2)CCN(c2ccc3nnc(-c4ccccc4)n3n2)CC1,,inconclusive: 38.5%
CCCC(=O)N1CCN(c2ccc(NC(=O)c3cc4ccccc4o3)cc2Cl)CC1,,inactive
CN1CCCN(C(=O)Cc2c(Cl)cccc2Cl)c2nc3ccccc3nc21,"inconclusive: 20 µM [activator, partial curve]",
O=C(CCCn1c(=O)c2sccc2n(Cc2cc(=O)n3ccccc3n2)c1=O)NCc1ccco1,,inconclusive: 44.8% [at 2.3 µM]
COc1ccc2nc(SCc3nc(N)nc(Nc4ccccc4)n3)[nH]c2c1,,inactive
O=C1C(=O)N(CCN2CCOCC2)C(c2ccccn2)/C1=C(/O)c1ccc(Cl)cc1 (stereo not drawn),"inconclusive: 31.6 µM [inhibitor, single point]",
NC(N)=NCCSSCCN=C(N)N,,inactive
Cc1ccc([N+](=O)[O-])cc1N,,inactive
CCCCCCNc1c(C(=O)OCC)c(=O)[nH]c2ccccc12,,inconclusive: 47.6%

SMILES,Potency,"activity change, negative = inhibition"
CN(C)CCCCl,,inactive
CN(C)c1ccc(P(=O)(OCc2ccccc2)C(O)c2cccnc2)cc1 (stereo not drawn),,inconclusive: 42.2%
COc1ccccc1CN1CCCC2(CCN(C(=O)c3ccncc3)CC2)C1,,inactive
Nc1nc(Nc2ccccc2)nc2c1ncn2[C@@H]1O[C@@H](CO)[C@H](O)[C@@H]1O,,inactive
COc1ccc(CCNc2oc(COc3ccccc3F)nc2C#N)cc1,,inactive
CCc1ccc(C2CC(=O)N3CN(c4ccccc4)CSC3=C2C#N)cc1 (stereo not drawn),,inconclusive: 27.5%
Cc1nnc(NC(=O)c2ccc(S(=O)(=O)N(C)Cc3ccccc3)cc2)o1,"inconclusive: 31.6 µM [inhibitor, single point]",
C=Cc1c(C)c2cc3nc(cc4[nH]c(cc5nc(cc1[nH]2)C(C)=C5CCC(=O)O)c(CCC(=O)OC)c4C)[C@@]1(C)C3=CC=C(C(=O)OC)[C@H]1C(=O)OC (tested in a mixture with another compound),active: 0.251 µM [activator],
CN(CCCNC(=O)C1CCC(=O)N1Cc1ccc(F)cc1)c1ccccc1 (stereo not drawn),,inconclusive: 17.8%
Cc1ccc2c(COn3nnc4ccc(S(=O)(=O)N(C)C)cc43)cc(=O)oc2c1C,,inactive
CC1(c2cccs2)CC(c2cccs2)=C(C#N)C(=O)N1 (stereo not drawn),,inconclusive: 41.4%
CC(C)C[C@@H](CC(=O)N[C@@H](CCCN)CC(=O)N[C@@H]1CCCC[C@H]1C(=O)N[C@H](CC(=O)N[C@@H](CCC(=O)O)CC(=O)O)CC(C)C)NC(=O)[C@@H]1CCCC[C@H]1N,"inconclusive: 31.6 µM [inhibitor, single point]",
CS(=O)(=O)N1CCC2(CC1)CN(c1ccccc1)C2,,inactive
CC(=O)[C@H]1CC[C@H]2[C@@H]3CCC4=CC(=O)CC[C@]4(C)[C@H]3CC[C@]12C,,inconclusive: 50.9%
Cc1ccc(-c2cc3nc(C)cc(NCc4ccco4)n3n2)cc1,,inactive
Cc1cnc(CNc2ncncc2-c2ccccc2C)cn1,,inactive
Cc1ccc2[nH]cc(C(=O)CN3CCN(c4ccccn4)CC3)c2c1,,inconclusive: 38.1%
CCC/C=C(\CCC)C(NS(=O)(=O)c1ccc(C(F)(F)F)cc1)c1ccccc1 (stereo not drawn),"inconclusive: 31.6 µM [activator, single point]",
NC(=O)C1CCN(C(=O)c2ccc(CS(=O)(=O)c3c(Cl)cccc3Cl)o2)CC1,,inconclusive: 44.5%
CN1CCc2cccc3c2[C@@H]1Cc1ccc(O)c(O)c1-3,"inconclusive: 39.8 µM [inhibitor, partial curve, poor fit]",
